Results: publication doi:10.1101/2024.11.15.623798

Protein sequences, listed by entry. Tags and fused reporters are not part of them. Residues count along the entry.
UniProt Q03265, residues 44-553: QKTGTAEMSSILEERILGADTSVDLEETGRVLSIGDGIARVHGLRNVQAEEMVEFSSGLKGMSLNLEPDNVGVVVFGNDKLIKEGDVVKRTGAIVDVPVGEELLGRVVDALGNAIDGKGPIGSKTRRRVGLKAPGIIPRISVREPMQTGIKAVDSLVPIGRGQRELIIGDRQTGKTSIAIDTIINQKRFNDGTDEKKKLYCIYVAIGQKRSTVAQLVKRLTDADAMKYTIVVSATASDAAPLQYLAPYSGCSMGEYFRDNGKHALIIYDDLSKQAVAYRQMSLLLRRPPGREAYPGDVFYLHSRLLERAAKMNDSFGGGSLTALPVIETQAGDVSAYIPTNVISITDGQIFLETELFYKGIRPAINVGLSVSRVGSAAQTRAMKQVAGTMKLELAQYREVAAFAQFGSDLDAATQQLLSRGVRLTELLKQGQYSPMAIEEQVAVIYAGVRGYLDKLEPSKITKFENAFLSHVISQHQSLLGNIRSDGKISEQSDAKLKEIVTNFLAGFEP
UniProt P47856: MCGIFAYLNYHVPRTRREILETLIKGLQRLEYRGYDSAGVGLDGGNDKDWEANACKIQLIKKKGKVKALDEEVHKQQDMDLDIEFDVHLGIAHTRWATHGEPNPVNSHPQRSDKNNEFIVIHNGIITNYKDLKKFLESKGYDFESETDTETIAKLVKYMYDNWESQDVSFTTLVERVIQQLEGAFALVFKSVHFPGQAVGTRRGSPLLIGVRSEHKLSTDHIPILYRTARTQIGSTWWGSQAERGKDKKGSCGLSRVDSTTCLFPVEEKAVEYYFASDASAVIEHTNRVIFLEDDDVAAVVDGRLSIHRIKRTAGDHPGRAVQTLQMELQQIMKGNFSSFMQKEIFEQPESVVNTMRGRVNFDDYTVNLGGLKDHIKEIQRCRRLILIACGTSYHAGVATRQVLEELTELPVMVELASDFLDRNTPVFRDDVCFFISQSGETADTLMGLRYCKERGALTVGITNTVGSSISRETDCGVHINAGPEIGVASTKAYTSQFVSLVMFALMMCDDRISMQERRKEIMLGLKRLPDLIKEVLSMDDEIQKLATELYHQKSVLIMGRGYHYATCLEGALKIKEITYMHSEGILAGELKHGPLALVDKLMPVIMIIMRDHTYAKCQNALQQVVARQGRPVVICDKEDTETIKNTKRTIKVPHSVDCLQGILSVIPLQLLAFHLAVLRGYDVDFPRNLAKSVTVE

T1: HKDC1 (HK domain containing 1) (mouse (endogenous in small intestinal mucosa)) (UniProt Q91W97)
T1 sequence: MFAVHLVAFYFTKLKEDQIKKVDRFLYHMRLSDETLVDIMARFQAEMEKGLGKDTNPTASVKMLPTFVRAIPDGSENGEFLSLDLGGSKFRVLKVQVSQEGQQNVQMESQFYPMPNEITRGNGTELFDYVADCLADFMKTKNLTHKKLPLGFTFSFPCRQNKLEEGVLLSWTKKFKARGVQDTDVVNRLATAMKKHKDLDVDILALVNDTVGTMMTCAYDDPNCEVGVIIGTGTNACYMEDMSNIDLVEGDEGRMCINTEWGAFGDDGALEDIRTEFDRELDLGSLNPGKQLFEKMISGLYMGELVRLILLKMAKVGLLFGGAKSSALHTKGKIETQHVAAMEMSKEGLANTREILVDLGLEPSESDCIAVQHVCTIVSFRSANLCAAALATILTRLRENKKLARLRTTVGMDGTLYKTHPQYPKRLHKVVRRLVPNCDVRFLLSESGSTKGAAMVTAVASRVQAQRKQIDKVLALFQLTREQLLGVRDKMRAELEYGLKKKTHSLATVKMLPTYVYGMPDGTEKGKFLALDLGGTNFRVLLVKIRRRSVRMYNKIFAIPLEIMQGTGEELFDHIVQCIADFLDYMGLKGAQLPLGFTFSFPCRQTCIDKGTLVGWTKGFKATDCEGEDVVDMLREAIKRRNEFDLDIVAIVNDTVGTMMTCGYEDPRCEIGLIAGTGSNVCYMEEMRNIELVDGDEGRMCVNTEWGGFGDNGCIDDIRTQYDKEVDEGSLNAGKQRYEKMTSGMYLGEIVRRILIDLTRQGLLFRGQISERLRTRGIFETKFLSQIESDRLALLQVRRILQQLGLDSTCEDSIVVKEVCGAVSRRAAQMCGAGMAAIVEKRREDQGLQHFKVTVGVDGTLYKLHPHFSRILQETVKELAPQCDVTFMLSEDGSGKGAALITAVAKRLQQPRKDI

B1: SLC25A5 (Solute Carrier Family 25 Member 5 also referred to as ADP/ATP Translocase 2) (protein, UniProt P51881 1-298)
chain: MTDAAVSFAKDFLAGGVAAAISKTAVAPIERVKLLLQVQHASKQITADKQYKGIIDCVVRIPKEQGVLSFWRGNLANVIRYFPTQALNFAFKDKYKQIFLGGVDKRTQFWRYFAGNLASGGAAGATSLCFVYPLDFARTRLAADVGKAGAEREFKGLGDCLVKIYKSDGIKGLYQGFNVSVQGIIIYRAAYFGIYDTAKGMLPDPKNTHIFISWMIAQSVTAVAGLTSYPFDTVRRRMMMQSGRKGTDIMYTGTLDCWRKIARDEGSKAFFKGAWSNVLRGMGGAFVLVLYDEIKKYT
B2: HK2 (enzyme, UniProt O08528 1-917)
chain: MIASHMIACLFTELNQNQVQKVDQYLYHMRLSDETLLEISRRFRKEMEKGLGATTHPTAAVKMLPTFVRSTPDGTEHGEFLALDLGGTNFRVLRVRVTDNGLQRVEMENQIYAIPEDIMRGSGTQLFDHIAECLANFMDKLQIKEKKLPLGFTFSFPCHQTKLDESFLVSWTKGFKSSGVEGRDVVDLIRKAIQRRGDFDIDIVAVVNDTVGTMMTCGYDDQNCEIGLIVGTGSNACYMEEMRHIDMVEGDEGRMCINMEWGAFGDDGTLNDIRTEFDREIDMGSLNPGKQLFEKMISGMYMGELVRLILVKMAKAELLFQGKLSPELLTTGSFETKDVSDIEDDKDGIQKAYQILVRLGLSPLQEDCVATHRICQIVSTRSASLCAATLAAVLWRIKENKGEERLRSTIGVDGSVYKKHPHFAKRLHKAVRRLVPDCDVRFLRSEDGSGKGAAMVTAVAYRLADQHRARQKTLESLKLSHEQLLEVKRRMKVEMEQGLSKETHEAAPVKMLPTYVCATPDGTEKGDFLALDLGGTNFRVLLVRVRNGKRRGVEMHNKIYSIPQEVMHGTGEELFDHIVQCIADFLEYMGMKGVSLPLGFTFSFPCQQNSLDQSILLKWTKGFKASGCEGEDVVTLLKEAIRRREEFDLDVVAVVNDTVGTMMTCGYEDPHCEVGLIVGTGSNACYMEEMRNVELVDGEEGRMCVNMEWGAFGDNGCLDDLRTVFDVAVDELSLNPGKQRFEKMISGMYLGEIVRNILIDFTKRGLLFRGRISERLKTRGIFETKFLSQIESDCLALLQVRAILRHLGLESTCDDSIIVKEVCTVVARRAAQLCGAGMAAVVDKIRENRGLDNLKVTVGVDGTLYKLHPHFAKVMHETVRDLAPKCDVSFLESEDGSGKGAALITAVACRIREAGQR

Each molecule was assayed against T1, HKDC1 (HK domain containing 1) (mouse (endogenous in small intestinal mucosa)) (assay: affinity purification with mass spectrometry).

Row | binding | Molecule
1 | binds | ATP5A1 (ATP Synthase Subunit Alpha 1) (from UniProt Q03265 44-553)
2 | binds | GFPT1 (Glutamine-Fructose-6-Phosphate Transaminase 1) (from UniProt P47856 1-697) (enzyme)
3 | binds | HK1 (from UniProt P17710-3) (enzyme)
4 | binds | B1
5 | binds | B2

These are yes or no findings as the source states them, for the method shown. Binding seen in cells or lysates may run through a third protein. Here binding means that the protein was enriched with, or labelled near, the bait; the list need not be complete.
